The results in this text go back to publication PMC2778132.

By UniProt entry, the sequences of proteins in these tests, tags left out. Where a name states a change or a piece, a line headed by the entry shows the natural chain unless it says otherwise.
UniProt P08514: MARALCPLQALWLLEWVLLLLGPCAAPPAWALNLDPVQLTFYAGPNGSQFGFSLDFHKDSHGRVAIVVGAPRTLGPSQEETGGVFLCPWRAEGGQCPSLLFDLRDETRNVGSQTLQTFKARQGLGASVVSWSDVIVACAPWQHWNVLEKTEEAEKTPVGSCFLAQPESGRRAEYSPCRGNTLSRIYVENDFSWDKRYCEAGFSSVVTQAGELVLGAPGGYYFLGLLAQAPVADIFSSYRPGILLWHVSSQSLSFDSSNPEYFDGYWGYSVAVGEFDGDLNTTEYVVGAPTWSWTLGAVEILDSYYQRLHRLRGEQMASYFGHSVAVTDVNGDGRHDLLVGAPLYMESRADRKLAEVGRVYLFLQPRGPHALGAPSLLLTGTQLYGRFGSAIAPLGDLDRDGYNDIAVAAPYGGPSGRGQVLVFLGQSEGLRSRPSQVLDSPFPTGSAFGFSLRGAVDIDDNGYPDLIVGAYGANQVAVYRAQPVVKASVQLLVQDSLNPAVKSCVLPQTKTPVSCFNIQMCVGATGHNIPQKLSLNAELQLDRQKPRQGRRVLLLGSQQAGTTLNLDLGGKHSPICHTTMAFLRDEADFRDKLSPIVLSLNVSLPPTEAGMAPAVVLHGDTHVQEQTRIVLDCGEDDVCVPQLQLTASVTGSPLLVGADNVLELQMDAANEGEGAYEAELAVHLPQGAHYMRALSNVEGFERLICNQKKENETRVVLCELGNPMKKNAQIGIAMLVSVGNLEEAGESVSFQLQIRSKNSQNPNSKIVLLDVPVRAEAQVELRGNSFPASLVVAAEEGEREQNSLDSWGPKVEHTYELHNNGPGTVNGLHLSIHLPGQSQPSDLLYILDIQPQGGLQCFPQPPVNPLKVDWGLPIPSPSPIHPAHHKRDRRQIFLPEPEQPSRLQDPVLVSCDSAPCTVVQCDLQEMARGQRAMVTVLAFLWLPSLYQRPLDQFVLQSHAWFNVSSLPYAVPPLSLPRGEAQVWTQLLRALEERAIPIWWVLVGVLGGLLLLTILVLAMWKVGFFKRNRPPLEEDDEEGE

Where a chain is given by its changes, count along the chain named. These are yes or no findings as the source states them, for the method shown. In cells and extracts the contact can be indirect. Some entries that bind do so weakly or less than the wild type. Sequences can lack the tags named with a protein.

Common to all, as to assay: pull-down; GST fusion proteins bound to beads incubated with activated platelets for 1 h at room temperature; after lysis beads washed, SDS-PAGE and western blotting; only the target purified
For orientation: In western blotting, separated proteins are transferred to a membrane and probed.

For test [1], the target named is T1, GST-Dab2 N-PTB^5M (K25A/K49A/K51A/K53A/D66E) (UniProt P98082).
T1 sequence: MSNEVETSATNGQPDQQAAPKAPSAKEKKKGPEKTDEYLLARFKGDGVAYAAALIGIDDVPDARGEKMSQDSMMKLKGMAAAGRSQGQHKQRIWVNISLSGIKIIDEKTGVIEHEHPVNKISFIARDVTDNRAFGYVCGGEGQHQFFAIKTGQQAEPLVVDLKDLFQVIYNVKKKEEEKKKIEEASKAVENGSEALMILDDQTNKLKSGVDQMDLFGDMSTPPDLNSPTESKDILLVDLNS

In test [2] the target is T2, GST-Dab2 N-PTB (N-terminal region of Disabled-2 including its PTB domain, residues 1-241) (UniProt P98082).
T2 sequence: T1 sequence with A25K, A49K, A51K, A53K, E66D

In test [3] the target is T3, GST-Dab2 N-PTB^4M (Lys25Ala, Lys49Ala, Lys51Ala, Lys53Ala) (UniProt P98082).
T3 sequence: T1 sequence with E66D

Test [4] concerns the target T4, GST-Dab2 N-PTB^D66E (Asp66Glu) (UniProt P98082).
T4 sequence: T1 sequence with A25K, A49K, A51K, A53K

For the substance “endogenous αIIbβ3 integrin receptor of activated platelets (from UniProt P08514 32-1039; P05106 27-788)”, the binding result in test [1] was “no binding”; in test [2] it was “binds”; in test [3], “binds”; in test [4] it was “no binding”.
